This note sets out measurements from PMC3264577, “RINL, Guanine Nucleotide Exchange Factor Rab5-Subfamily, Is Involved in the EphA8-Degradation Pathway with Odin” (PLoS ONE, 2012).

These are yes or no findings as the source states them, for the method shown. In cells and extracts the contact can be indirect. Some entries that bind do so weakly or less than the wild type. Sequences can lack the tags named with a protein.

Assay in all cases: co-IP; FLAG-RIN family, FLAG-mock or deletion mutants of FLAG-RINL transfected into HEK293T; lysates immunoprecipitated with anti-FLAG; endogenous odin blotted
For one assay, the target named is T1, FLAG-RIN2 (UniProt Q8WYP3).
T1 sequence: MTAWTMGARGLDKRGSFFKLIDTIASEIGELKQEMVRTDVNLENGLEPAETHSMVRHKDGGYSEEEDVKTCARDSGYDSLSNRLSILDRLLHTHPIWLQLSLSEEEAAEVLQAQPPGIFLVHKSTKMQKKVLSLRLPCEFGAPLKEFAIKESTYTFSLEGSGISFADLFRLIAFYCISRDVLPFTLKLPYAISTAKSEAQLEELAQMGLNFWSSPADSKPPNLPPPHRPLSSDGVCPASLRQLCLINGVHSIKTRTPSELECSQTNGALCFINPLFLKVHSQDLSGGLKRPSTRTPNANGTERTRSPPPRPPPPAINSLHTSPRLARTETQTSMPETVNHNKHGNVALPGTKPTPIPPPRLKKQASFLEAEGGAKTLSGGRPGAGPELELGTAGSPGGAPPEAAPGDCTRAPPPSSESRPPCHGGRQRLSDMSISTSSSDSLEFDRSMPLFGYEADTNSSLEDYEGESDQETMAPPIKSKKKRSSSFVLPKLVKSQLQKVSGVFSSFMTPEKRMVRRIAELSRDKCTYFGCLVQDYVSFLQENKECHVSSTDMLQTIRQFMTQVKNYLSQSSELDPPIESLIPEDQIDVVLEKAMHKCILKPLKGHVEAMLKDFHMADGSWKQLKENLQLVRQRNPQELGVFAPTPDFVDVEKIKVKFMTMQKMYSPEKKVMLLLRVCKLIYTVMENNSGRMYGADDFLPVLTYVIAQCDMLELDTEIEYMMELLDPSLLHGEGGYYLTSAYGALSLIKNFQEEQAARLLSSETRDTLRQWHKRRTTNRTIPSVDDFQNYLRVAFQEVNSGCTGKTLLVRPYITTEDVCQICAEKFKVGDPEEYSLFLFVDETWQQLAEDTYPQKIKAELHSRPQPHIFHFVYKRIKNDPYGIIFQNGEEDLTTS

In a further assay the target is T2, FLAG-RIN1 (UniProt Q13671).
T2 sequence: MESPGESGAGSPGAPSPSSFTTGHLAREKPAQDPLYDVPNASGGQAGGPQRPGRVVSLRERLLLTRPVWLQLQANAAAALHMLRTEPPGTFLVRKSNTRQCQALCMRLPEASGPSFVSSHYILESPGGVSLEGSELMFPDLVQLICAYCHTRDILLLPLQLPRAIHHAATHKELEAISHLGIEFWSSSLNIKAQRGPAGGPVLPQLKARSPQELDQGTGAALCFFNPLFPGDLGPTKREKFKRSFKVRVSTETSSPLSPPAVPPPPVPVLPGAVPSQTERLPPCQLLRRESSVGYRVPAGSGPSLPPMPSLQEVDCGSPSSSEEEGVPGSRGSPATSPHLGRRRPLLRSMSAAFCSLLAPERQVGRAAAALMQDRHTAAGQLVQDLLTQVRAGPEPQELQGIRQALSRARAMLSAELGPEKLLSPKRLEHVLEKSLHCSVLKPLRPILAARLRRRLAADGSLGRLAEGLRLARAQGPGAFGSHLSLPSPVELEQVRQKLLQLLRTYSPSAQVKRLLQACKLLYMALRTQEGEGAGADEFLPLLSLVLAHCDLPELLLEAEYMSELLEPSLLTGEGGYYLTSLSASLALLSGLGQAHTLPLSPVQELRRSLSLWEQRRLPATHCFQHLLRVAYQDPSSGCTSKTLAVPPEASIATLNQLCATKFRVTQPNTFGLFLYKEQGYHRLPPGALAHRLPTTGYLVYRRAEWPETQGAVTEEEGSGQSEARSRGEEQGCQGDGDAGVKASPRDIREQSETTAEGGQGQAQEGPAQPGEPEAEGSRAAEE

The target of a further assay is T3, FLAG-RIN3 (UniProt Q8TB24).
T3 sequence: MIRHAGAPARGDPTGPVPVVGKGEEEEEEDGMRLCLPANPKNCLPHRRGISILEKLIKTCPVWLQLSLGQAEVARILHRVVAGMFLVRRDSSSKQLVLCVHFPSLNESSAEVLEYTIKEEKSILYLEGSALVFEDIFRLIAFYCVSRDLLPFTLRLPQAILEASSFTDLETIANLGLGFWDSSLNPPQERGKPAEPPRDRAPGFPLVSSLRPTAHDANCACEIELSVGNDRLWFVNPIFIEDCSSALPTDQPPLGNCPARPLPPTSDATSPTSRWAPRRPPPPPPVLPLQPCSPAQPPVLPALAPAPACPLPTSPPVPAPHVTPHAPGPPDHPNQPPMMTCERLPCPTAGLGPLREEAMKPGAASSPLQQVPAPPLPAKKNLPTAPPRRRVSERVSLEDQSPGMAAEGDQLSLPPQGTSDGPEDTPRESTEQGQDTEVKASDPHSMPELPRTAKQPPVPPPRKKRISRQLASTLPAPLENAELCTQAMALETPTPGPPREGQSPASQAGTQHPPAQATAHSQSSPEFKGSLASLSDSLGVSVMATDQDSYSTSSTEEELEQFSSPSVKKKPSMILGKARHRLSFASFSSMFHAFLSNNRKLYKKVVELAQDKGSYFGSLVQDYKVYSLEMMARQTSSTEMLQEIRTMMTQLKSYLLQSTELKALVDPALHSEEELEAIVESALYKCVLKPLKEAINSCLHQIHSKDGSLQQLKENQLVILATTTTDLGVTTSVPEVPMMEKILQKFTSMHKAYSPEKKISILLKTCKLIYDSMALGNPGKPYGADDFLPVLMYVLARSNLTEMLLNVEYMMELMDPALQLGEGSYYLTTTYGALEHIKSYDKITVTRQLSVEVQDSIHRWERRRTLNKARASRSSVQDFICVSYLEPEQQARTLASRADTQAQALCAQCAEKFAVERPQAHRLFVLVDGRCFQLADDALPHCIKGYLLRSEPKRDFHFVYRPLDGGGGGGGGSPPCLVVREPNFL

B1: endogenous odin (HEK293T) (protein, UniProt Q92625 1-1134)
chain: MGKEQELLEAARTGHLPAVEKLLSGKRLSSGFGGGGGGGSGGGGGGSGGGGGGLGSSSHPLSSLLSMWRGPNVNCVDSTGYTPLHHAALNGHKDVVEVLLRNDALTNVADSKGCYPLHLAAWKGDAQIVRLLIHQGPSHTRVNEQNNDNETALHCAAQYGHTEVVKVLLEELTDPTMRNNKFETPLDLAALYGRLEVVKMLLNAHPNLLSCNTKKHTPLHLAARNGHKAVVQVLLDAGMDSNYQTEMGSALHEAALFGKTDVVQILLAAGTDVNIKDNHGLTALDTVRELPSQKSQQIAALIEDHMTGKRSTKEVDKTPPPQPPLISSMDSISQKSQGDVEKAVTELIIDFDANAEEEGPYEALYNAISCHSLDSMASGRSSDQDSTNKEAEAAGVKPAGVRPRERPPPPAKPPPDEEEEDHIDKKYFPLTASEVLSMRPRIHGSAAREEDEHPYELLLTAETKKVVLVDGKTKDHRRSSSSRSQDSAEGQDGQVPEQFSGLLHGSSPVCEVGQDPFQLLCTAGQSHPDGSPQQGACHKASMQLEETGVHAPGASQPSALDQSKRVGYLTGLPTTNSRSHPETLTHTASPHPGGAEEGDRSGARSRAPPTSKPKAELKLSRSLSKSDSDLLTCSPTEDATMGSRSESLSNCSIGKKRLEKSPSFASEWDEIEKIMSSIGEGIDFSQERQKISGLRTLEQSVGEWLESIGLQQYESKLLLNGFDDVHFLGSNVMEEQDLRDIGISDPQHRRKLLQAARSLPKVKALGYDGNSPPSVPSWLDSLGLQDYVHSFLSSGYSSIDTVKNLWELELVNVLKVQLLGHRKRIIASLADRPYEEPPQKPPRFSQLRCQDLLSQTSSPLSQNDSCTGRSADLLLPPGDTGRRRHDSLHDPAAPSRAERFRIQEEHREAKLTLRPPSLAAPYAPVQSWQHQPEKLIFESCGYEANYLGSMLIKDLRGTESTQDACAKMRKSTEHMKKIPTIILSITYKGVKFIDASNKNVIAEHEIRNISCAAQDPEDLCTFAYITKDLQTSHHYCHVFSTVDVNLTYEIILTLGQAFEVAYQLALQAQKSRATGASAAEMIETKSSKPVPKPRVGVRKSALEPPDMDQDAQSHASVSWVVDPKPDSKRSLSTN
As to B1, the binding entry is “binds weakly” with FLAG-RIN2, “binds weakly” in the assay with FLAG-RIN1 and “no binding” with FLAG-RIN3.
